Results on 1 sequence are retold here after publication doi:10.1101/2025.10.10.681657 (bioRxiv, 2025).

In series [1] the target is T1, Snu13 (UniProt P39990).
T1 sequence (looked up, limits assumed): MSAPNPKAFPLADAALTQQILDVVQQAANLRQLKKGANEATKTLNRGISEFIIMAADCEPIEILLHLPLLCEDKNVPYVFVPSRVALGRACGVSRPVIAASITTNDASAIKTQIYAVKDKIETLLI
Kind of series: EMSA. Particulars: IC50 of compound 22 (0.5-20 uM) against 1 uM Snu13 complex; EMSA: 20 mM Tris-Cl pH 7.6, 150 mM NaCl, 0.1% Triton X-100, 2 mM DTT, room temperature, 8% native PAGE; RNA folded in 11.25 mM K-phosphate pH 7.0, 310 mM KCl, 5 mM EDTA; label: 5'-Cy5.

Series [2] deals with T1, Snu13. The experiment in a line: MST. The settings on record: MST: 10 mM HEPES pH 7.4, 150 mM NaCl, 0.005% Tween 20, 50 nM RNA (protein buffer, mixed 1:1 with RNA), label: 5'-Cy5.

The exact form of at least one protein or probe is not confirmed. Protein sequences can lack the tags named with them.

In the series with Snu13 [1], “GGCCUUAUGCACGGGAAAUACGCAUAUCAGUGAGGAUUCGUCCGAGAUUGUGUUUUUGCUGGUGUAAAUCAGCAGUUCCCCUGCAUAAGGCU [U4/U6 snRNA 92 nt construct]” came in with a half-inhibitory concentration (IC50) of 3200 nM. Moreover, the dissociation constant Kd came to 806 nM in the series with Snu13 [2] (10 uM compound 22) and 207 nM in the series with Snu13 [2] (10 uM neomycin).
